Results are given in words; binding and its absence hold for the method and conditions named. In cells and extracts the contact can be indirect. Some entries that bind do so weakly or less than the wild type. Sequences can lack the tags named with a protein.
Assays:
[1] = target: T1, 3×Flag-ATG4A (wild-type, full-length ATG4A) (UniProt Q8WYN0); assay: co-IP; HEK293T cells co-transfected with GFP-GABARAP and a Flag-tagged ATG4 construct; lysates incubated with anti-FLAG magnetic beads overnight at 4 °C, eluted with 1% SDS sample buffer, Western blot
T1 sequence: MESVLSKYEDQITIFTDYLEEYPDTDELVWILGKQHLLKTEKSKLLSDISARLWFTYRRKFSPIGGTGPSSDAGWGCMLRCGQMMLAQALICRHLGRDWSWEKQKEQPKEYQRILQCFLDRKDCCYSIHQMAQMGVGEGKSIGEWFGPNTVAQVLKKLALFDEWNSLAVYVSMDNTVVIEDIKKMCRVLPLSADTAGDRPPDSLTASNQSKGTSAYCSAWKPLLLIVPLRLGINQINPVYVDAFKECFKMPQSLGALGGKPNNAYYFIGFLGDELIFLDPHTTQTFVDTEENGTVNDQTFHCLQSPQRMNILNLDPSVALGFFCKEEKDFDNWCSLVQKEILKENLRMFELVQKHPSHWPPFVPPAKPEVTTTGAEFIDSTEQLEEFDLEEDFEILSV

Sequences of proteins named here, by UniProt entry; tags and fusion partners are left off.
UniProt O95166: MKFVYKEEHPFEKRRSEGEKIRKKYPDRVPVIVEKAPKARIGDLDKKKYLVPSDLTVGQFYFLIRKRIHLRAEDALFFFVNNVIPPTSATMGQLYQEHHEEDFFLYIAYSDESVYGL

[2] = target: T2, Truncated 3×Flag-ATG4A (T-ATG4A, lacking amino acids 374–398) (UniProt Q8WYN0); assay: as above
T2 sequence: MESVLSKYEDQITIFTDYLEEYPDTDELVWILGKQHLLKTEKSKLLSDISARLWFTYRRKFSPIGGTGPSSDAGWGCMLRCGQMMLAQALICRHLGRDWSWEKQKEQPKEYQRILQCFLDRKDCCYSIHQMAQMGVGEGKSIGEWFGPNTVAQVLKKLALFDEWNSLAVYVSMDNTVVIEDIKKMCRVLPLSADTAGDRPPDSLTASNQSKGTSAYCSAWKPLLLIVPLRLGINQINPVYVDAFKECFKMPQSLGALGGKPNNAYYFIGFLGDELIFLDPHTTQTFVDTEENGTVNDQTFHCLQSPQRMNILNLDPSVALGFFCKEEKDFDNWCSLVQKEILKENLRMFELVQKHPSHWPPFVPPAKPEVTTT

GFP-GABARAP (from UniProt O95166 1-117)
binding [1]: binds | binding [2]: binds
